Experimental data as given in publication PMC7862700.
Only a part is listed here, and it is no random draw. At the low end of the ranking the order means little.

Protein sequences, listed by entry. Tags and fused reporters are not part of them. Lines headed by an entry give the natural chain unless they say otherwise; changes in a name come on top.
UniProt O43186: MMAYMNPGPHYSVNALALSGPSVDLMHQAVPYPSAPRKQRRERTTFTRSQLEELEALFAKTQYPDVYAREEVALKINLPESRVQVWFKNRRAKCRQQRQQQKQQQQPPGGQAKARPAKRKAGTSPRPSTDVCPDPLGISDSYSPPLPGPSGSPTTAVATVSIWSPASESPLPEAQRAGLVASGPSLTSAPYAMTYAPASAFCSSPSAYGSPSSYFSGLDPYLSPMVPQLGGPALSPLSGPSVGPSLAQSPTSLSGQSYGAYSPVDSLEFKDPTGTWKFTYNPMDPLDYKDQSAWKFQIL

Experiments:
Test in all cases: DAPPL (digital affinity profiling via proximity ligation, sequencing)
Settings in all cases: 10 mM Tris-HCl pH 7.5, 50 mM NaCl, 1 mM DTT, 4% glycerol, room temperature, 30 min; GST-TFs on glutathione beads, 16-mer random dsDNA library, 0.1% …; high values mean tight binding; double strand, one strand shown; scale: fold enrichment (6-mer frequency, TF over GST control)
FEV = target: T1, FEV (UniProt Q99581)
T1 sequence: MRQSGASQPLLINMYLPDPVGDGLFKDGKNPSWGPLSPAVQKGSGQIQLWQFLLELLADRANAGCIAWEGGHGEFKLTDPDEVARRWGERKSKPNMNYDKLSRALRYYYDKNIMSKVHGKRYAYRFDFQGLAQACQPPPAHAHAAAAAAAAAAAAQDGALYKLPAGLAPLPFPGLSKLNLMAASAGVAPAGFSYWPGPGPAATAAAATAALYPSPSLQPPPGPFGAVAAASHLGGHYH

CRX = CRX (UniProt O43186)
ELF5 = target: T2, ELF5 (UniProt Q9UKW6-2)
T2 sequence: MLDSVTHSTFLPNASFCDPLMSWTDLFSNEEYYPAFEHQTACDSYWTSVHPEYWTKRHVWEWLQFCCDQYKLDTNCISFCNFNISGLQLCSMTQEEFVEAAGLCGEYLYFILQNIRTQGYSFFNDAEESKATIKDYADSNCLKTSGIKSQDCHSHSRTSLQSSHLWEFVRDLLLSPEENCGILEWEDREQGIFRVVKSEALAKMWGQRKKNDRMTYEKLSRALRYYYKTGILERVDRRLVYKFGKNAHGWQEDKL

Sequence | binding signal (FEV) | binding signal (CRX) | binding signal (ELF5)
CCAGTA | 0.677 | 0.727 | 0.632
CGGTCA | 0.852 | 0.542 | 0.753
GCTGAG | 0.624 | 0.655 | 0.587
ACGGAC | 0.931 | 0.594 | 0.852
GAGCTA | 0.906 | 0.959 | 0.845
ACAGGG | 0.777 | 0.635 | 0.838
GGGTAA | 0.83 | 0.913 | 0.915
CGGTAG | 0.732 | 0.466 | 0.736
GTAGTG | 0.723 | 0.577 | 0.809
ACGTGC | 0.635 | 0.557 | 0.637
GAGACA | 0.381 | 0.297 | 0.361
AGCTGG | 0.869 | 0.974 | 0.873
TGGGCC | 0.898 | 0.657 | 0.815
TAGAGG | 0.8 | 1.02 | 0.822
GACCCT | 0.881 | 0.778 | 0.855
AGTGCG | 0.811 | 0.577 | 0.848
GTGAGT | 0.122 | 0.121 | 0.119
GAGATC | 0.443 | 0.544 | 0.422
CCGGAG | 0.562 | 0.392 | 0.508
GAGGGA | 0.488 | 0.509 | 0.53
CGTGAG | 0.121 | 0.112 | 0.116

7 records picked at random from the list so far:
Sequence | binding signal (FEV) | binding signal (CRX) | binding signal (ELF5)
CGGTCA | 0.852 | 0.542 | 0.753
CGTGAG | 0.121 | 0.112 | 0.116
GACCCT | 0.881 | 0.778 | 0.855
GAGGGA | 0.488 | 0.509 | 0.53
ACAGGG | 0.777 | 0.635 | 0.838
GAGATC | 0.443 | 0.544 | 0.422
ACGGAC | 0.931 | 0.594 | 0.852

Additional records

Sequence | binding signal (FEV) | binding signal (CRX) | binding signal (ELF5)
AGATAG | 0.784 | 0.903 | 0.789
ACCAGC | 0.828 | 0.754 | 0.794
GCAGTA | 0.904 | 0.787 | 0.847
CGGAAT | 0.941 | 0.718 | 0.996
GGCGGC | 0.542 | 0.437 | 0.494
GAGGTA | 0.645 | 0.57 | 0.682
GGCGCA | 0.599 | 0.447 | 0.537
GTGAAA | 0.707 | 0.579 | 0.726
ACGAGT | 0.684 | 0.683 | 0.617
AGGTCA | 0.693 | 0.563 | 0.687
GACGAA | 0.863 | 0.752 | 0.856
ATCAGT | 0.828 | 0.96 | 0.76
GAGGCG | 0.347 | 0.299 | 0.344
GGCACG | 0.839 | 0.629 | 0.83
TCGGTT | 0.815 | 0.793 | 0.774
GTGAGC | 0.408 | 0.324 | 0.353
AGACGG | 0.345 | 0.323 | 0.384
GTCAGC | 0.731 | 0.567 | 0.658
AGGGCA | 0.858 | 0.677 | 0.789
TGACAG | 0.903 | 0.79 | 0.893
GGACAA | 0.796 | 0.616 | 0.844

Sequence | binding signal (FEV) | binding signal (CRX) | binding signal (ELF5)
GTGAAG | 0.544 | 0.471 | 0.514
AGGAGC | 0.382 | 0.326 | 0.372
AACGAG | 0.758 | 0.709 | 0.776
TCGTGA | 0.348 | 0.322 | 0.338
GACGTA | 0.767 | 0.586 | 0.71
GACGAT | 0.869 | 0.968 | 0.875
AGGCCG | 0.54 | 0.44 | 0.449
AGTTGA | 0.776 | 0.678 | 0.772
CAGTCT | 0.713 | 0.682 | 0.687
GGGATC | 0.567 | 0.875 | 0.633
CGCAGA | 0.793 | 0.737 | 0.714
ACCCAG | 0.687 | 0.642 | 0.693
GCAGTG | 0.53 | 0.445 | 0.566
CAGAGG | 0.57 | 0.565 | 0.602
GTGCGT | 0.565 | 0.422 | 0.581
CTGTGA | 0.506 | 0.44 | 0.466
CAGCAA | 0.93 | 0.828 | 0.885
TGTGTG | 0.802 | 0.669 | 0.784
CGAGAC | 0.615 | 0.502 | 0.515
GTGGTG | 0.815 | 0.592 | 0.868
GGTCAT | 0.845 | 0.648 | 0.794

Sequence | binding signal (FEV) | binding signal (CRX) | binding signal (ELF5)
GGTGTG | 0.65 | 0.486 | 0.651
GTCGTC | 0.662 | 0.49 | 0.741
CAGGGT | 0.834 | 0.666 | 0.845
GACATA | 0.885 | 0.765 | 0.854
GGACCC | 0.823 | 0.602 | 0.806
CGGGTC | 0.681 | 0.462 | 0.788
ATTGGA | 0.907 | 1.03 | 0.868
AGGCAA | 0.763 | 0.629 | 0.706
GGGACC | 0.685 | 0.459 | 0.613
GTGGGA | 0.614 | 0.534 | 0.608
CATAGG | 0.755 | 0.669 | 0.721
GTCAGA | 0.586 | 0.545 | 0.618
GGGAGT | 0.225 | 0.19 | 0.219
GAGTAG | 0.491 | 0.429 | 0.46
TGCCGT | 0.834 | 0.686 | 0.849
GACCCG | 0.845 | 0.594 | 0.86
AGCGAG | 0.624 | 0.578 | 0.578
GAGTAC | 0.527 | 0.433 | 0.537
GGCCAA | 0.836 | 0.653 | 0.772
GGGCGC | 0.558 | 0.438 | 0.545
AGGGTC | 0.864 | 0.651 | 0.82
